Here are results for ten molecules from PubChem BioAssay (NCATS).

Each structure is given as a SMILES string. The list shows a part of the results. These are further read-outs of the screen, such as a control signal, another cell line or another target. No call is given for them. The list favours compounds with an active or inconclusive main result. Potencies come from curve fits of mixed quality, noted in brackets.

This test can be described thus: qHTS for identification of novel therapeutic agents for treatment of microphthalmiaassociated transcription factor (MiT) renal cell carcinoma (RCC) (AID 1963991). Particulars: CellTiter-Glo, 48 h; for z-score: stronger effect = lower value. The text has this: PI: Marston Linehan Ph.D.
Urologic Oncology Branch, Center for Cancer Research (CCR)
National Cancer Institute (NCI), National Institute of Health (NIH), Bethesda, Maryland
MiT-Renal Cell Carcinoma (RCC) is characterized by genomic translocations involving microphthalmia-associated transcription factor (MiT) family members TFE3, TFEB, or MITF. MiT-RCC represents a specific subtype of sporadic RCC that is predominantly seen in young patients and can present with heterogeneous histological features making diagnosis challenging. Moreover, the disease biology of this aggressive cancer is poorly understood and there is no accepted standard of care therapy for patients with advanced disease. Tumor-derived cell lines have been established from human TFE3-RCC providing useful models for preclinical studies. TFE3-RCC tumor derived cell lines and their tissues of origin were characterized by IHC and gene expression analyses. An unbiased high-throughput drug screen was performed to identify novel therapeutic agents for treatment of MiT-RCC. Potential therapeutic candidates were validated in in vitro and in vivo preclinical studies. Mechanistic assays were conducted to confirm the on-target effects of drugs. The results of a high-throughput small molecule drug screen utilizing three TFE3-RCC tumor-derived cell lines identified five classes of agents with potential pharmacological efficacy, including inhibitors of phosphoinositide-3-kinase (PI3K) and mechanistic target of rapamycin (mTOR), and several additional agents, including the transcription inhibitor Mithramycin A. Upregulation of the cell surface marker GPNMB, a specific MiT transcriptional target, was confirmed in TFE3-RCC and evaluated as a therapeutic target using the GPNMB-targeted antibody-drug conjugate CDX-011. […] The results of the high-throughput drug screen and validation studies in TFE3-RCC tumor-derived cell lines have provided in vitro and in vivo preclinical data supporting the efficacy of the PI3K/mTOR inhibitor.
SEQUENCE No. (e.g., 1, 2, 3, etc.); […] (e.g., Cells, Incubation, Reagent, etc.); VALUE; DESCRIPTION.
1; Cells; 3 uL; white, solid-bottom Grenier assay plate.
2; Compounds; 23 nL; Kalypsis pin-tool (Wako USA).
3; Incubation; 48 hr; 37 C, 5% CO2, 95% humidity.
4; Reagent; 3 uL; CellTiter-Glo reagent (Promega).
5; Incubation; 15 min; room temperature.
6; Detection; Luminescence; ViewLux plate reader (PerkinElmer).
NOTES (numbers refer to Sequence numbers above)
1. Quantitative high-throughput screening (qHTS) of 1912 pharmacologically defined small molecule compounds was conducted on three TFE3-fusion cell lines bearing three different fusion partners (UOK109, UOK124, UOK145). Briefly, 500 cells in complete growth media were plated into white, solid-bottom, 1536-well tissue culture treated plates (Grenier Cat. 789173-F) using a Multidrop Combi cassette dispenser.
2. Twenty-three nanoliter of 1912 pharmacologically defined small molecule compounds of the NCATS Mechanism Interrogation PlatE (MIPE) version 4.0 were added to each assay plate using a Pintool Dispenser (Wako) equipped with 1536 pin head.
3. Plates were covered with stainless steel gasketed lids and incubated for 48 hours at standard cell culture conditions.
4. Viability was assessed by adding 3uL of CellTiter-Glo detection reagent (Promega).
5. Plates were covered with gasket lids and incubated for 15 minutes at room temperature.
6. Luminescence was measured on a ViewLux plate reader (PerkinElmer). Post-screen data processing used DMSO controls as 100% viability and empty wells as 0% viability and dose response curve fitting was done for all 11 concentrations for each compound.
A general note: qHTS replaces the single test concentration by a dilution series.

Where [1] appears, read: TFE3-RCC UOK109 viability, measured here: UOK109 Z-AUC.
Setting [2] is: TFE3-RCC viability, measured here: UOK124 Z-AUC.
The mark [3] stands for this setting: TFE3-RCC viability, measured here: UOK124 cell viability.
The mark [4] stands for this setting: TFE3-RCC viability, measured here: UOK145 Z-AUC.
[5] abbreviates: TFE3-RCC viability, measured here: UOK145 cell viability.

The AC50 is the concentration giving half of the maximal activity seen. Regarding `COC(=O)N[C@H](C(=O)N1CCC[C@@H]1c1ncc(-c2ccc(-c3ccc(-c4cnc([C@@H]5CCCN5C(=O)[C@@H](NC(=O)OC)C(C)C)[nH]4)cc3)cc2)[nH]1)C(C)C`, the z-score runs as follows: under setting [1], 0.246; under setting [2], 0.26; under setting [4], -0.718. Also, the AC50 under setting [3] was 37.2 µM [falling, single point] and the AC50 under setting [5] is 37.2 µM [falling, single point].
On to `Nc1ccn([C@H]2CC[C@@H](CO)O2)c(=O)n1`, for which the z-score is, setting by setting: under setting [1], 0.172; under setting [2], 0.444; under setting [4], 0.217.
`COc1cc(Nc2ncc(F)c(Nc3ccc4c(n3)N(COP(=O)(O)O)C(=O)C(C)(C)O4)n2)cc(OC)c1OC`: the z-score was -1.35 under setting [1], -0.386 under setting [2] and -0.958 under setting [4]. For the same molecule, the AC50 reads like this: under setting [3], 2.96 µM [falling, partial curve]; under setting [5], 1.18 µM [falling, full curve].
As for `Cc1nc(NC(=O)N2CCC[C@@H]2C(N)=O)sc1-c1ccnc(C(C)(C)C(F)(F)F)c1`, the z-score runs as follows: under setting [1], -0.503; under setting [2], -2.54; under setting [4], -0.864. In addition, the AC50 under setting [3] is 20.9 µM [falling, partial curve] and the half-maximal activity concentration (AC50) under setting [5] was 11.8 µM [falling, partial curve].
As for `NC(=NCCCCCCN=C(N)N=C(N)Nc1ccc(Cl)cc1)N=C(N)Nc1ccc(Cl)cc1`, the z-score reads like this: under setting [1], -0.41; under setting [2], 0.289; under setting [4], -0.267. Moreover, the AC50 under setting [3] is 18.7 µM [falling, partial curve] and the AC50 under setting [5] is 18.7 µM [falling, partial curve].
Consider `CO[C@@H]1[C@H](N(C)C(=O)c2ccccc2)C[C@H]2O[C@]1(C)n1c3ccccc3c3c4c(c5c6ccccc6n2c5c31)C(=O)NC4`, for which the z-score runs as follows: under setting [1], -0.733; under setting [2], -0.701; under setting [4], -0.367. The AC50 runs as follows: under setting [3], 1.32 µM [falling, full curve]; under setting [5], 4.18 µM [falling, full curve].
Regarding `Cc1cc(C2CCCCC2)n(O)c(=O)c1`, the z-score by setting is: under setting [1], -0.974; under setting [2], -0.469; under setting [4], -0.458. In addition, the AC50 reads like this: under setting [3], 4.18 µM [falling, partial curve, poor fit]; under setting [5], 14.8 µM [falling, partial curve].
Regarding `CC(C)n1cnc2c(NCCc3ccc(O)cc3)nc(-c3csc4ccccc34)nc21`, the z-score is, setting by setting: under setting [1], 0.305; under setting [2], -0.539; under setting [4], -0.351. Further, the AC50 was 33.2 µM [falling, single point] under setting [3] and 14.8 µM [falling, partial curve] under setting [5].
Regarding `CS[C@H]1SC[C@@H]2C(=O)N(C)[C@H](C(C)C)C(=O)OC[C@H](NC(=O)c3cnc4ccccc4n3)C(=O)N[C@H](C)C(=O)N(C)[C@@H]1C(=O)N(C)[C@H](C(C)C)C(=O)OC[C@H](NC(=O)c1cnc3ccccc3n1)C(=O)N[C@H](C)C(=O)N2C`, the AC50 runs as follows: under setting [3], 0.00833 µM [falling, full curve]; under setting [5], 0.00833 µM [falling, full curve].
For the molecule `O=C(Cc1ccc(-c2ccc(OCCN3CCOCC3)cc2)cn1)NCc1ccccc1`, the AC50 was 0.0296 µM [falling, full curve] under setting [3] and 0.0372 µM [falling, full curve] under setting [5].
